In article PMC7596047:
Results are given in words; binding and its absence hold for the method and conditions named. In cells and extracts the contact can be indirect. Some entries that bind do so weakly or less than the wild type.

By UniProt entry, the sequences of proteins in these tests, tags left out.
UniProt Q16666: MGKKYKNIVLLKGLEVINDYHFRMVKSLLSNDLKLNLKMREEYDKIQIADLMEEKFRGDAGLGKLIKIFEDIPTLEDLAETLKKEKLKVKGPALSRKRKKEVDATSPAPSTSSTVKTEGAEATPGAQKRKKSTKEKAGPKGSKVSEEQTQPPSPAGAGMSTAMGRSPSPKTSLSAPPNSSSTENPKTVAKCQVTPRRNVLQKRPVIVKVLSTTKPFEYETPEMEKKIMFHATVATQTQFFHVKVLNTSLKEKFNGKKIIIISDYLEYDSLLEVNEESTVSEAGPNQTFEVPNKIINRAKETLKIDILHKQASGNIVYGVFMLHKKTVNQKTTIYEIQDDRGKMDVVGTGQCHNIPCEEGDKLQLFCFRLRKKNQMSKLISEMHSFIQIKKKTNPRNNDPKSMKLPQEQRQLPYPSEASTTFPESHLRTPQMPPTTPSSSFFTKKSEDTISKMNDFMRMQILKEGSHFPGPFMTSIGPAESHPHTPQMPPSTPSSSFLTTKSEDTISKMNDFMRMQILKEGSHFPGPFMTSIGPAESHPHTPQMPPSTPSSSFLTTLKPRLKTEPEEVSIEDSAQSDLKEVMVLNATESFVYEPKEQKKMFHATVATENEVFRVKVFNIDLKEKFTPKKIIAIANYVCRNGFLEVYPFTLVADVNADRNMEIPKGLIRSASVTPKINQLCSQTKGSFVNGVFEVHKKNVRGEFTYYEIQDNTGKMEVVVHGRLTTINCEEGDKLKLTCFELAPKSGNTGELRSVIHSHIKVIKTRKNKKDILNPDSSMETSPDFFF

How the values were obtained:
[1] = target: p53 (human (endogenous in H9 hESCs and cells differentiated from them)) (UniProt P04637); assay: proximity ligation; Duolink in situ PLA with anti-IFI16 and anti-p53 on fixed undifferentiated H9 hESCs; confocal microscopy
[2] = target: p53 (human (endogenous in H9 hESCs and cells differentiated from them)) (UniProt P04637); assay: co-IP; lysates (Pierce IP Lysis Buffer) of undifferentiated H9 hESCs; precipitated with p53 or IFI16 antibodies at 4 °C overnight, protein A/G magnetic beads; immunoblot
[3] = target: p53 (human (endogenous in H9 hESCs and cells differentiated from them)) (UniProt P04637); assay: co-IP; lysates (Pierce IP Lysis Buffer) of differentiated trilineage cells (endoderm, mesoderm, ectoderm) on Day 2; precipitated with p53 or IFI16 antibodies at 4 °C overnight, protein A/G magnetic beads; immunoblot
[4] = target: p53 (human (endogenous in H9 hESCs and cells differentiated from them)) (UniProt P04637); assay: proximity ligation; Duolink in situ PLA with anti-IFI16 and anti-p53 on fixed differentiated trilineage cells on Day 2; confocal microscopy
[5] = target: gamma-interferon-inducible protein 16 (IFI16) (human (endogenous in H9 hESCs and cells differentiated from them)) (UniProt Q16666); assay: co-IP; lysates (Pierce IP Lysis Buffer) of undifferentiated H9 hESCs; precipitated with p53 or IFI16 antibodies at 4 °C overnight, protein A/G magnetic beads; immunoblot
[6] = target: gamma-interferon-inducible protein 16 (IFI16) (human (endogenous in H9 hESCs and cells differentiated from them)) (UniProt Q16666); assay: co-IP; lysates (Pierce IP Lysis Buffer) of differentiated trilineage cells (endoderm, mesoderm, ectoderm) on Day 2; precipitated with p53 or IFI16 antibodies at 4 °C overnight, protein A/G magnetic beads; immunoblot

Substance	binding [1]	binding [2]	binding [3]	binding [4]	binding [5]	binding [6]
gamma-interferon-inducible protein 16 (IFI16) (from UniProt Q16666 1-785)	no binding (condition: in undifferentiated H9 cells)	binds weakly	binds	binds	–	–
p53 (from UniProt P04637 1-393)	–	–	–	–	binds weakly	binds
